Assay results published in US9624758B2, “Use of oligo-quaternary compositions to increase scale inhibitor lifetime in a subterranean formation” (Ecolab USA Inc., priority 2012, dated 2017).

Experiment: Static adsorption test on Ottawa sand
Conditions: with Product A versus scale inhibitor alone

Compound | Percentage Absorption Increase [%]
DETA phosphonate [Product C] | 74.8
O=P(O)(O)CN(CCCCCCN(CP(=O)(O)O)CP(=O)(O)O)CCCCCCN(CP(=O)(O)O)CP(=O)(O)O [Product B, BHMT phosphonate] | 82.5
